Test results: US20090092555A1 (published 2009)
These are yes or no findings as the source states them, for the method shown. Some results given as binding are weak or reduced against the parent protein; the word gives no strength.

Chains of the proteins cited; added tags and fusions are not shown. Lines headed by an entry give the natural chain unless they say otherwise; changes in a name come on top.
UniProt P06756: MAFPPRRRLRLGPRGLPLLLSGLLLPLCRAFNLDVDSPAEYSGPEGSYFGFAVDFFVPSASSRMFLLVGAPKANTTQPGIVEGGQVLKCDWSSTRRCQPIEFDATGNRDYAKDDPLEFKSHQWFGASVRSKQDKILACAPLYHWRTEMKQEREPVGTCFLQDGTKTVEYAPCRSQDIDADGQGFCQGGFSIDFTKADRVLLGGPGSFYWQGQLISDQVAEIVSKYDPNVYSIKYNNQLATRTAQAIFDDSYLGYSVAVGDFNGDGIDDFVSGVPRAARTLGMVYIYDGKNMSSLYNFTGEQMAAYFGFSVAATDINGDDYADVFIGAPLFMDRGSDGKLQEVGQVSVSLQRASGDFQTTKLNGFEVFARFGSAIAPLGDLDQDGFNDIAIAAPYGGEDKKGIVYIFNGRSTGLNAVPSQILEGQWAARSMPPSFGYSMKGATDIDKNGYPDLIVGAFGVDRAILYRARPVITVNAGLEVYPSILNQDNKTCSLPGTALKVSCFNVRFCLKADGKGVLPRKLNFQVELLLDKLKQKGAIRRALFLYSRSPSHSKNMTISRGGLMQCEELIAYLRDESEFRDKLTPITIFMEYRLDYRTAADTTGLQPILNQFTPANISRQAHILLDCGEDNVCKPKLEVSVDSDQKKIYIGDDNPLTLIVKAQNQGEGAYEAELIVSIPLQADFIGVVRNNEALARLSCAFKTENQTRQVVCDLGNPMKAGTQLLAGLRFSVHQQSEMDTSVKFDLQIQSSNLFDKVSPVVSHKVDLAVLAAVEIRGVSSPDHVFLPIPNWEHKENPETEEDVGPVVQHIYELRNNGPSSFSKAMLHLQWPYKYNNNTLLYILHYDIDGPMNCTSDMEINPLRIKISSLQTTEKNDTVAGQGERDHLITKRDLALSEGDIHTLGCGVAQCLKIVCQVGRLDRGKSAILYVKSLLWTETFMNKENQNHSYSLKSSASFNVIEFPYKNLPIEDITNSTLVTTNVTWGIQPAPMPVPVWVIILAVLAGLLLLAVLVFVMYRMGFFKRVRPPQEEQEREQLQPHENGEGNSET
UniProt P05106: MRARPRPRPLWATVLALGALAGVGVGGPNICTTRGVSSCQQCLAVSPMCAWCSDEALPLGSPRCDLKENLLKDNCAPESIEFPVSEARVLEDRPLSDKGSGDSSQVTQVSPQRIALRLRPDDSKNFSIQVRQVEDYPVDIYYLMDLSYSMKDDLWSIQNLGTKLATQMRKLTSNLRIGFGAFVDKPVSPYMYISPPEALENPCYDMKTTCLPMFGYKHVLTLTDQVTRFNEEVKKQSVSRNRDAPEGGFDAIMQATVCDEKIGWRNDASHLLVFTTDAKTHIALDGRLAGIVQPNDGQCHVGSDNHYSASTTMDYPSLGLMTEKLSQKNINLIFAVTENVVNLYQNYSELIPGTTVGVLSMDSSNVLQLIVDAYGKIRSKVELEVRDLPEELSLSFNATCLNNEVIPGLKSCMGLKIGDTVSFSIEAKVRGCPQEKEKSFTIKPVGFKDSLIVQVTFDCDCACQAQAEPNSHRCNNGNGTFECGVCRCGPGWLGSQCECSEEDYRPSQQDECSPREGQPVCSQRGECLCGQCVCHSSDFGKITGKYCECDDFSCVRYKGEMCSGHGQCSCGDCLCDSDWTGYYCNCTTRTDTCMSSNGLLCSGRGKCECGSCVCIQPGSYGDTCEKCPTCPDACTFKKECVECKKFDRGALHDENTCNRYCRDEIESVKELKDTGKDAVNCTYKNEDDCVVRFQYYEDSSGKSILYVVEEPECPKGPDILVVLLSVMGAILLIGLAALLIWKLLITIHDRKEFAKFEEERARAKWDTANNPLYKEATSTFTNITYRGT

Target: v3 integrin (alpha-v beta-3; the Greek letters are lost in the filing's text) on Calu-3 human lung carcinoma cells (human) (UniProt P06756+P05106)
Test: fluorescence microscopy of the Alexa-Fluor 488 labeled mutant on Calu-3 cells expressing v3 integrin

B1: GKE-RGD PlyCB mutant (RGD substituted for G22K23E24 of PlyCB), octamer (designed binder)
chain: SKINVNVENVSGVQGFLFHTDRGDSYGYRAFINGVEIGIKDIETVQGFQQIIPSINISKSDVEAIRKAMKK
modifications: cross-linked with Alexa-Fluor 488 (sites not given)
In the case of B1, the binding is reported as “binds”.

B2: KES-RGD PlyCB mutant (RGD substituted for K23E24S25 of PlyCB), octamer (designed binder)
chain: SKINVNVENVSGVQGFLFHTDGRGDYGYRAFINGVEIGIKDIETVQGFQQIIPSINISKSDVEAIRKAMKK
modifications: cross-linked with Alexa-Fluor 488 (sites not given)
For B2, the binding was “binds”.
